Data reported in paper PMC10320870.
No constants are given. Whether binding was seen depends on the method and setting. In cells and extracts the contact can be indirect. Some binding calls cover weakened binding; strength is not graded here. For some assays here: Tags and fused reporters may be left off the sequences shown.

Chains of the proteins cited; added tags and fusions are not shown.
UniProt P18850: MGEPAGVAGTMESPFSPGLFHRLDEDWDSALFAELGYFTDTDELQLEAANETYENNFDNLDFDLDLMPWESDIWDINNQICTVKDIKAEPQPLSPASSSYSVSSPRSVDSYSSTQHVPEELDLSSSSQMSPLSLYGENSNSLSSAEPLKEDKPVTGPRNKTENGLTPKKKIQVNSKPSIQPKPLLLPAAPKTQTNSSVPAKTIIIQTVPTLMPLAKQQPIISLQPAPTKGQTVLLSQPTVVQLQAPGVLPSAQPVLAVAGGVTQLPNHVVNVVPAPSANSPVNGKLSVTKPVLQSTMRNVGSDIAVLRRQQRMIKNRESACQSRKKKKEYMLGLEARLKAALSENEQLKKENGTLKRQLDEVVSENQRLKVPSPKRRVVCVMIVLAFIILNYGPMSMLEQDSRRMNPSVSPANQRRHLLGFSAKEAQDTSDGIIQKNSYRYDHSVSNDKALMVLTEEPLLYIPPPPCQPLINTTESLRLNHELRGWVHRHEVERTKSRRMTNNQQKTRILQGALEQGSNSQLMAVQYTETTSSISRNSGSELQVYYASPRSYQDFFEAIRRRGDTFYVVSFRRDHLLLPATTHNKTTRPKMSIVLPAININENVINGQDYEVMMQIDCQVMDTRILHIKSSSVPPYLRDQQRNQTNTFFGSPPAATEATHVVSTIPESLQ

What was measured:
[1] = target: T1, protocadherin 20 (PCDH20), endogenous (human (endogenous in Caco-2)) (UniProt Q8N6Y1); test: co-IP; lysate of Caco-2 cells without any treatment (endogenous proteins); antibody-coupled NHS-activated magnetic beads, overnight at 4 °C; western blot
T1 sequence: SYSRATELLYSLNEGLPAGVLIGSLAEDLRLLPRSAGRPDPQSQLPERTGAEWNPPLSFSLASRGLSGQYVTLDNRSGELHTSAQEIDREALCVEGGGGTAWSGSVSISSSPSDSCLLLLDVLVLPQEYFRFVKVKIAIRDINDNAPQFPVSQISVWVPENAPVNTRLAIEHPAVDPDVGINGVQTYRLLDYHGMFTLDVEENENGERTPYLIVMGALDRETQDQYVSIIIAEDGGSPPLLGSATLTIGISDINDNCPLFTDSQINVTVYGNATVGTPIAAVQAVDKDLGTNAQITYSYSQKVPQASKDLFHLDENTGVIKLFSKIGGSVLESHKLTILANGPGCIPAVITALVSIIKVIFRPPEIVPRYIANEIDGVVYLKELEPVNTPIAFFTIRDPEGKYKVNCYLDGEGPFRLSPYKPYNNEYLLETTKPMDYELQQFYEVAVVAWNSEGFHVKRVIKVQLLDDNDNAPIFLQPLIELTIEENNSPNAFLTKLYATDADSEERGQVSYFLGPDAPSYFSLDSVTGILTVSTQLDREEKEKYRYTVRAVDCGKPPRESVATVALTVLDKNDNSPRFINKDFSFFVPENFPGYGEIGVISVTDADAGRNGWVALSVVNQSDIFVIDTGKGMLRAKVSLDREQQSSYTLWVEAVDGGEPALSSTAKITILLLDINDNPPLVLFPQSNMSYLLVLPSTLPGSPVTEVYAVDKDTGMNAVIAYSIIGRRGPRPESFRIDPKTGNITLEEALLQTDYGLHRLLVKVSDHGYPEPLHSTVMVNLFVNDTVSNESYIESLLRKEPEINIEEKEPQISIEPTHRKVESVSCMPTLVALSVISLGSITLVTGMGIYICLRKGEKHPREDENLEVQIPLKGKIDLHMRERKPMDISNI

[2] = target: T2, flag-tagged PCDH20 (protocadherin 20) (UniProt Q8N6Y1); test: co-IP; lysate (750 ug protein) of flag-tagged PCDH20-overexpressing Caco-2 cells; antibodies against Flag or ATF6 (controls rabbit IgG, mouse IgG1 kappa) coupled to NHS-activated magnetic beads, overnight at 4 °C; western blot
T2 sequence: T1 sequence

binding [1]: binds | binding [2]: binds
Substance: activating transcription factor 6 (ATF6) (from UniProt P18850 1-670)
